Data from paper PMC7819943, “Rice protein-binding microarrays: a tool to detect cis-acting elements near promoter regions in rice”.
This is one part of the list.

Sequences of proteins named here, by UniProt entry; tags and fusion partners are left off.
UniProt Q0JBA9, entry or part of it: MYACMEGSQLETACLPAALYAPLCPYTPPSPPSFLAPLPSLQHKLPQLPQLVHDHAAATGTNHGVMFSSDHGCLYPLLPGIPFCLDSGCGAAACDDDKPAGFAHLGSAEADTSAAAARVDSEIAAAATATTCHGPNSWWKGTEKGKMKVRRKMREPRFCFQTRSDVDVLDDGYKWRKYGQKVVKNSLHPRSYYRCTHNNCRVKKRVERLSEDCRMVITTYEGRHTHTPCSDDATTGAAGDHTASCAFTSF

molecular target: OsWRKY34 (Oryza sativa, UniProt Q0JBA9 1-250); assay: protein-binding microarray (RPBM); PBS, 2% BSA, 51.3 ng/ul salmon testes DNA, 50 uM zinc acetate, 200 nM TF, 25 C, 1 h; high values mean tight binding; settings: protein: recombinant; tags: N-terminal polyhistidine and DsRed monomer fusion (pET32a); label: CyDye5-dUTP incorporated in the synthesized complementary strand; 3' TTTTT single-stranded linker to array surface; dsDNA, one strand shown
In short: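 The binding signal is fluorescence intensity per array feature (arbitrary units). Readings came from an Axon 4000B scanner after a washed, 2% BSA-blocked, double-stranded custom Agilent array had been incubated for 1 h at 25 °C with 200 nM protein and 50 µM zinc acetate. The protein was a Ni–NTA-purified transcription factor fused N-terminally to polyhistidine and DsRed, expressed in E. coli BL21-CodonPlus.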

| Sequence | binding signal |
| --- | --- |
| CACCGCGTACGTCACATTTACAGCTTTTGGTCGTCTATAACGGAGTCACCTAGTGCAG | 11100 fluorescence intensity (a.u.) |
| ACCCTGCACTTTTAAATCCGTCGTCCTTCTAGCTAGTGTTCGGAGTCACCTAGTGCAG | 9250 fluorescence intensity (a.u.) |
| GGCCTAATTGGGCCTGGGGAAAACTTACTTGGGCGGGGCTCGGAGTCACCTAGTGCAG | 13000 fluorescence intensity (a.u.) |
| ATTTGGTGTGCTTTGCCATGGAGGTTGTATGCCCACATATCGGAGTCACCTAGTGCAG | 10400 fluorescence intensity (a.u.) |
| AAGTTAGTACTTTTGACCATTCAACCGGTTAGCATTTATCCGGAGTCACCTAGTGCAG | 8550 fluorescence intensity (a.u.) |
| GCCACATTCGGTTCCTGAGCTCTCTCTCTTTCTCAGTGTCCGGAGTCACCTAGTGCAG | 9910 fluorescence intensity (a.u.) |
| TTCCCACAACTCTGCCGCTTAATTTCTTGTTGGTTCGTGTCGGAGTCACCTAGTGCAG | 8930 fluorescence intensity (a.u.) |
| TTTGATACCTATCAGCTGGTCAGCTCTGATCTTCCTGTTTCGGAGTCACCTAGTGCAG | 11500 fluorescence intensity (a.u.) |
| GTATGGATCACCTGATTAATTGGGCCGTCGTTCCATTCCCCGGAGTCACCTAGTGCAG | 9830 fluorescence intensity (a.u.) |
| GTTTCTTGTGTTCTTGGTGTGGAGAAGGTCGACGCGGAAGCGGAGTCACCTAGTGCAG | 9180 fluorescence intensity (a.u.) |
| ACGTATAACTCGTCAGGCACCTGGGCACTGGACCCCACCTCGGAGTCACCTAGTGCAG | 8730 fluorescence intensity (a.u.) |
| ATTTTAAATCACGTATTATTCAAGATCTATTTGCATCATTCGGAGTCACCTAGTGCAG | 8230 fluorescence intensity (a.u.) |
| TCCCACCCGCATTTTCCATTATCCAAACACATCCTCAAAGCGGAGTCACCTAGTGCAG | 8950 fluorescence intensity (a.u.) |
| GGTGAGTTCTTGATTTGGGCGTGGAGCTTTTTTTCTTGGTCGGAGTCACCTAGTGCAG | 8170 fluorescence intensity (a.u.) |
| CTCGCCTCCACCTCCACCGCCGCGCTCCTCTCCGCTCCTACGGAGTCACCTAGTGCAG | 9880 fluorescence intensity (a.u.) |
| TTACTGATTTACTCATTGTTACTGTTCATTGAAGCTAGTACGGAGTCACCTAGTGCAG | 10300 fluorescence intensity (a.u.) |
| ATCCCTTATCATCGCATCTGGAATCCACACAGGTATTTTACGGAGTCACCTAGTGCAG | 8110 fluorescence intensity (a.u.) |
| CATTCTGAATGGGTTGTATTTATTGGTTACTGGTTTTTAACGGAGTCACCTAGTGCAG | 8300 fluorescence intensity (a.u.) |
| CTGCCGTAGAAGAGGATCTTCCTGTTGTGGTCGTCGACGACGGAGTCACCTAGTGCAG | 8640 fluorescence intensity (a.u.) |
| CTCGCCTTCGCCGGTCGCCGCCCGCCTCTCCTTCTCCGGCCGGAGTCACCTAGTGCAG | 9070 fluorescence intensity (a.u.) |
| AACCATCATGGTAGCCTTCGTTTAAGACTTATTTGACTTACGGAGTCACCTAGTGCAG | 8530 fluorescence intensity (a.u.) |

| Sequence | binding signal |
| --- | --- |
| GTGCTTTTGTTTTAATTGTTGTCTCTTCTCTTCTCTCGTGCGGAGTCACCTAGTGCAG | 8750 fluorescence intensity (a.u.) |
| GGCACTTAGCTCTGCAGTTCATTTAATTATTGTTTTATTCCGGAGTCACCTAGTGCAG | 9670 fluorescence intensity (a.u.) |
| AGGTAGTGCTTGATTTATAGTGTTTATGGTGAAGAAATTTCGGAGTCACCTAGTGCAG | 8590 fluorescence intensity (a.u.) |
| TGCTCAGCTGCATCATGTTTATCTGTGTGTTTCTTCAGAGCGGAGTCACCTAGTGCAG | 10600 fluorescence intensity (a.u.) |
| CTCTTGTAAAATTTGTACATATATTCACGATCGTTAAATTCGGAGTCACCTAGTGCAG | 8720 fluorescence intensity (a.u.) |
| GTTCACGTTGACTGCATCTGTCACTTGTGCTGGTTTCTGTCGGAGTCACCTAGTGCAG | 8920 fluorescence intensity (a.u.) |
| TTGCCCGCGCTTCGGCCGGCCACCTTGACGGCACGCGTGCCGGAGTCACCTAGTGCAG | 8040 fluorescence intensity (a.u.) |
| TCTCGTGGATAGCAAAATTTCCCATTTCTTGATGCGTGACCGGAGTCACCTAGTGCAG | 10100 fluorescence intensity (a.u.) |
| ACTTCTATATTTCCAAATTTGTGTTTTTACCATTTTCCTCCGGAGTCACCTAGTGCAG | 9610 fluorescence intensity (a.u.) |
| CAACATCATCCTCAACGCCGTCGCCCACCTCGCCGCCGGCCGGAGTCACCTAGTGCAG | 9830 fluorescence intensity (a.u.) |
| ATTTTGATATTTTGCTTACACTATTTGACCATTCGTCTTACGGAGTCACCTAGTGCAG | 8660 fluorescence intensity (a.u.) |
| GGCACCATCACTCCATCAGACCTTGGGTAATTCAAGCATACGGAGTCACCTAGTGCAG | 9030 fluorescence intensity (a.u.) |
| TCTCGCTTTATCTTCGATTCTCCGTTTGCGCTATCGTAACCGGAGTCACCTAGTGCAG | 9240 fluorescence intensity (a.u.) |
| AATCCATCTCCGATTCCCAGTCTGGTCAATCCGCCAGAAACGGAGTCACCTAGTGCAG | 11400 fluorescence intensity (a.u.) |
| TAATTTTCTTTTATGTATATACTCCTTCCATACTTATAAACGGAGTCACCTAGTGCAG | 8690 fluorescence intensity (a.u.) |
| GGTTTTCCCAACATAATCATCCTCTAACAAGCGCATCTTACGGAGTCACCTAGTGCAG | 8790 fluorescence intensity (a.u.) |
| TAGATCTTCTTCTTCTTCTTCGCGTCACATTTGGATCTTCCGGAGTCACCTAGTGCAG | 11900 fluorescence intensity (a.u.) |
| GATTTGACATTTTTGACTAAAAATTTTTGGGATCTAAACACGGAGTCACCTAGTGCAG | 8390 fluorescence intensity (a.u.) |
| GACACACTAAGAGTTAATTAAACTCTTCACTCTCGTAGGCCGGAGTCACCTAGTGCAG | 8180 fluorescence intensity (a.u.) |
| TATATATATATATATGCCTCAATGGTTTTGACCAGAAGCTCGGAGTCACCTAGTGCAG | 9420 fluorescence intensity (a.u.) |
| TCTGGAGTTTCCGTGTTCAACTTTAATTATCCGTCTTATTCGGAGTCACCTAGTGCAG | 10000 fluorescence intensity (a.u.) |

Quoted from the listing:
For binding signal, GACACACTAAGAGTTAATTAAACTCTTCACTCTCGTAGGCCGGAGTCACCTAGTGCAG has 8180 fluorescence intensity (a.u.)
For binding signal, GCCACATTCGGTTCCTGAGCTCTCTCTCTTTCTCAGTGTCCGGAGTCACCTAGTGCAG has 9910 fluorescence intensity (a.u.)
